Test results reported in publication doi:10.1101/2023.07.18.549521.
Results are given in words; binding and its absence hold for the method and conditions named. Some results given as binding are weak or reduced against the parent protein; the word gives no strength. Where a sequence is shown, tags or fusion partners need not be part of it.

Amino acid sequences for entries named in this document (tags omitted).
UniProt O95166: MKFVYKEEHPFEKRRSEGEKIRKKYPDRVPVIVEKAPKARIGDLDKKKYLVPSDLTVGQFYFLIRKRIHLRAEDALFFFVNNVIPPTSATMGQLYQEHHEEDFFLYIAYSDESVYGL

Target: T1, full-length tepsin-GST (residues 1-525) (UniProt Q96N21)
T1 sequence: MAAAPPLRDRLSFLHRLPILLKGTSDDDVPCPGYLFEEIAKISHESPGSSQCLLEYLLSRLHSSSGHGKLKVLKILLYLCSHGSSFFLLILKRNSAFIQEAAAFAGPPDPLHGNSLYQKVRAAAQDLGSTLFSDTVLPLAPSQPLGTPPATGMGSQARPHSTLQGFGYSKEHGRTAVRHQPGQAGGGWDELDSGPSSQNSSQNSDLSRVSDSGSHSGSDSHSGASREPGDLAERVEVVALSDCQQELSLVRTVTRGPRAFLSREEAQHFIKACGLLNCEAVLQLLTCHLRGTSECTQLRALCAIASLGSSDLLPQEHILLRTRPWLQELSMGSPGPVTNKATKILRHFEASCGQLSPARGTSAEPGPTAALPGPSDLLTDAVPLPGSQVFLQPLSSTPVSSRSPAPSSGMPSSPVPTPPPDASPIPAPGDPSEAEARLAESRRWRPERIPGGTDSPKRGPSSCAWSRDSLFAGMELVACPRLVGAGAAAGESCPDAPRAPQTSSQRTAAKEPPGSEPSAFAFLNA
Assay: pull-down

binding: binds weakly
Substance: His6x-GABARAP (residues 1-117) (from UniProt O95166 1-117)
